From PubChem BioAssay AID493014 (National Center for Advancing Translational Sciences (NCATS), 2011)
“And” between values parts separate entries of the source, which are not always exact repeats. Equal entries are not always repeated. The list shows a part of the results. Shown are side measurements of this screen, not its main read-out; they come without a call. The list favours compounds with an active or inconclusive main result. Words in brackets tell the shape of the fitted curve; partial curves, single points and poor fits give uncertain potencies.

Assay: qHTS Assay to Find Inhibitors of Chronic Active B-Cell Receptor Signaling
Conditions: ABC-DLBCL IkBa-CBG/CBR reporter, luminescence ratio (green luciferase fused to IkBa over red control in TMD8 lymphoma cells), 4 h
How it was run: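 Doxycycline induced both beetle luciferases in TMD8 lymphoma cells; IKK-driven degradation limits the IkappaBalpha-fused green signal, while red luminescence normalises for cell number and nonspecific effects. Compounds tested up to 46 uM, 4 hrs.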

[1] = measured here: CBR red luminescence, cell number
[2] = measured here: IkBa-CBG green luminescence

Row | SMILES | AC50 [1] | AC50 [2]
1 | N#Cc1ccc(OCc2ccc(C(=O)O)o2)cc1 | 17.8 µM [falling, single point] | –
2 | Cn1c(=O)c2c(n(C)c1=O)=NC1(CCCCC1)ON=2 | 0.13 µM [rising, full curve, poor fit] | –
3 | O=C1CC(c2ccccc2Cl)=NN(c2ncnc3ccccc23)C1=O | 7.94 µM [falling, partial curve] | –
4 | C=CCC[C@H](Cc1ccc(F)cc1)C(=O)OC[C@H](C)NC(=O)[C@H](CC=C)CC(=O)N(CCO)Cc1ccccc1 | 20.6 µM [falling, partial curve, poor fit] | –
5 | Cc1cc(C(=O)Nc2c(C)n(C)n(-c3ccccc3)c2=O)cs1 | 0.0116 µM [rising, full curve, poor fit] | –
6 | CCN(CC)CCn1c(=S)[nH]c2ncccc2c1=O | 2.31 µM [rising, single point] | –
7 | COc1cccc(-c2nc(CS(=O)CC(=O)NC3CCCC3)c(C)o2)c1 (centres undefined) | 29.1 µM [rising, single point] | –
8 | CCn1ncc(Br)c1C(=O)Nc1ccc(C(C)C)cc1 | 3.16 µM [rising, full curve, poor fit] | –
9 | O=C(Nc1nnc(-c2ccccc2Cl)o1)c1cccnc1 | 18.4 µM [falling, partial curve, poor fit] | –
10 | O=C(NCCC1=CCCCC1)c1cnsn1 | 8.2 µM [rising, partial curve, poor fit] | –
11 | CC#CCN(CC#CC)S(=O)(=O)c1ccc(-n2cnnn2)c(OC)c1 | 17.8 µM [rising, partial curve, poor fit] | –
12 | CCCOc1cccc(-c2cc(-c3n[nH]c(=S)n3CC)c3ccccc3n2)c1 | – | 14.1 µM [rising, partial curve, poor fit]
13 | COc1ccccc1N(C)S(=O)(=O)c1ccc(C(=O)N2CCCc3ccccc32)cc1 | 10 µM [falling, partial curve, poor fit] | 12.6 µM [rising, partial curve, poor fit]
14 | O=C(O)C[C@@H]1C(=O)O[C@@H]2C(COC(=O)c3cc(O)c(O)c(O)c3)O[C@@H](OC(=O)c3cc(O)c(O)c(O)c3)[C@@H](OC(=O)c3cc(O)c(O)c4c3[C@H]1[C@H](O)C(=O)O4)[C@H]2OC(=O)c1cc(O)c(O)c(O)c1 (some centres undefined) | 20 µM [falling, single point] | –
15 | CCOC(=O)C(C(=O)OCC)C(C(=O)OCC)N1CCOCC1 (centres undefined) | 0.517 µM [falling, full curve, poor fit] | –
16 | CC(C)(C)CC(C)(C)c1ccc(OCCOCC[N+](C)(C)Cc2ccccc2)cc1 | 25.9 µM [falling, partial curve, poor fit] | 32.6 µM [rising, partial curve, poor fit]
17 | Cc1ccc([C@H]2C(C#N)=C(N)Oc3cc(C)oc(=O)c32)o1 | 12.6 µM [falling, single point] | 15.8 µM [rising, partial curve, poor fit]
18 | Cc1cc(NNC(=O)c2ccccc2)nc(NNC(=O)c2ccccc2)n1 | 20 µM [falling, single point] | –
19 | CCOCCCNC(=O)CN1C(=O)/C(=C\c2ccc(C)cc2)Sc2ccccc21 | 14.6 µM [rising, partial curve] | –
20 | CN(Cc1ccco1)Cc1ccc(O)c2ncccc12 | 14.6 µM [rising, partial curve] | 29.1 µM [falling, single point] and 18.4 µM [falling, single point]

Row | SMILES | AC50 [1] | AC50 [2]
21 | COC(=O)c1ccc(NC(=S)NN2CCOCC2)cc1 | 1.41 µM [falling, full curve, poor fit] | –
22 | COc1ccc(S(=O)(=O)NC(C)C(=O)NCCN2CCOCC2)cc1Cl (centres undefined) | 0.631 µM [rising, full curve, poor fit] | –
23 | COc1ccccc1N=C(C)C1=C(O)COC1=O | 16.4 µM [falling, partial curve, poor fit] | –
24 | Cc1ccc(NC(=O)COC(=O)CNC(=O)C2CCCCC2)cc1S(=O)(=O)N(C)C | 23.1 µM [rising, single point] | –
25 | C=CC(C)(C)c1c2occc2c(O)c2ccc(=O)oc12 | 29.1 µM [falling, single point] | –
26 | CN(C)CCOC(C1CCCCC1)C1CCCCC1 | 0.0517 µM [falling, full curve, poor fit] | –
27 | CCN(CC(=O)Nc1c(F)cccc1F)C(=O)CNC(=O)c1sc2ccccc2c1Cl | 1.03 µM [rising, full curve, poor fit] | –
28 | Cc1nc(SCC#N)c2c3c(sc2n1)CCC3 | 9.2 µM [rising, single point] | –
29 | CCCS(=O)(=O)c1ccc(COC(=O)c2cccc(NC(=O)C(C)C)c2)cc1 | 17.8 µM [falling, single point] | –
30 | O=C(Nc1ccc(-c2cccc(F)c2)cc1)C1CCCN(Cc2ccccn2)C1 (centres undefined) | 35.5 µM [falling, single point] | –
31 | CC(CNc1ccc([N+](=O)[O-])cc1)NC(=O)c1ccccc1Br (centres undefined) | 4.11 µM [rising, single point] | –
32 | Cc1cc(N2CCC(C)CC2)n2ncc(-c3ccccc3)c2n1 | 0.447 µM [rising, full curve, poor fit] | –
33 | CN1OC(COC(=O)c2ccccc2)CC1c1ccccc1 (centres undefined) | 3.98 µM [rising, partial curve, poor fit] | –
34 | CCC(Oc1ccccc1)C(=O)Nc1ncc([N+](=O)[O-])s1 (centres undefined) | 0.141 µM [rising, full curve, poor fit] | –
35 | Cc1nc(C)c(-c2csc(NCc3ccco3)n2)s1 | 0.461 µM [rising, full curve, poor fit] | –
36 | Cc1c(NC(=O)OCc2ccccc2)c(=O)n(-c2ccccc2)n1C | 2.06 µM [falling, partial curve, poor fit] | –
37 | COc1ccc(C(CC(=O)c2ccc(C)cc2)Nc2ccc([N+](=O)[O-])cc2)cc1 (centres undefined) | 10.3 µM [rising, partial curve, poor fit] | –
38 | COC(=O)[C@@]12CCCN1[C@H](c1ccc(-c3ccc(Cl)c(Cl)c3)c(OC)c1)[C@H]1C(=O)N(C)C(=O)[C@H]12 | 11.6 µM [falling, partial curve, poor fit] | –
39 | O=C(COC(=O)Cc1c(F)cccc1Cl)NC(=O)c1ccccc1 | 7.08 µM [rising, partial curve] | –
40 | CCOC(=O)COc1cc(N2C(=O)CSCC2=O)c(Cl)cc1Cl | 20 µM [falling, partial curve, poor fit] | –

Row | SMILES | AC50 [1] | AC50 [2]
41 | CCCC(=O)NC(c1ccc(OC)cc1)c1ccc2cccnc2c1O (centres undefined) | 5.01 µM [falling, full curve] | –
42 | O=C(CSC(=S)N1CCCC1)N(Cc1nnc(-c2ccccc2Cl)o1)C1CC1 | 23.1 µM [rising, partial curve] | 18.4 µM [falling, partial curve, poor fit]
43 | COc1ccccc1CCNS(=O)(=O)c1cn(C)c(=O)n(C)c1=O | 12.6 µM [falling, partial curve, poor fit] | –
44 | CCN(CC)C(=O)[C@H]1CC(CC(=O)NC/C=C(\C)CCC=C(C)C)C(=O)N2CCc3c([nH]c4ccc(OC)cc34)[C@]12C (some centres undefined) | 23.1 µM [falling, single point] | –
45 | Cc1cc(-c2sccc2C)nc(-n2cccc2)n1 | 11.2 µM [rising, partial curve] | –
46 | Cc1nnc2sc(SCc3cccc(Cl)c3)nn2c1=O | 7.08 µM [falling, partial curve] | –
47 | Cc1c(C(=O)N/N=C/c2ccc(-c3ccccc3[N+](=O)[O-])o2)sc(N)c1C#N | 1.64 µM [falling, partial curve, poor fit] | –
48 | Cc1nnc(SCCn2c(N3CCN(C)CC3)nc3c2c(=O)[nH]c(=O)n3C)s1 | 17.8 µM [rising, partial curve, poor fit] | –
49 | CCOc1ccc(C(C)=O)cc1COC(=O)c1cc([N+](=O)[O-])ccc1N1CCOCC1 | 3.66 µM [rising, partial curve, poor fit] | –
50 | CC(C)n1cc(CN2CCCC(CO)(Cc3cccc(Cl)c3)C2)cn1 (centres undefined) | 3.55 µM [falling, partial curve, poor fit] | –
51 | COc1ccc(-c2cn3ccccc3n2)cc1OC | 14.1 µM [falling, single point] | –
52 | CCN(CC(=O)Nc1c(F)cccc1F)C(=O)CCN1C(=O)C2CCCCC2C1=O (centres undefined) | 32.6 µM [rising, partial curve, poor fit] | –
53 | Cc1ccc(NC(=O)[C@H](C)NC(=O)C2CCN(C(=O)[C@H](CC(C)C)NC(=O)OC(C)(C)C)CC2)cc1 | 15.8 µM [falling, single point] | –
54 | O=C(CSc1nc2ccccc2c(=O)n1-c1ccccc1Cl)NC1CCS(=O)(=O)C1 (centres undefined) | 5.17 µM [rising, single point] | –
55 | Cc1c(C(=O)Nc2nonc2-c2ccc(F)cc2)oc2ccc(F)cc12 | 5.62 µM [falling, partial curve] | –
56 | Cn1c(=O)c([N+](=O)[O-])c(NCc2ccc3c(c2)OCO3)c2ccccc21 | 10 µM [falling, partial curve, poor fit] | –
57 | CSC1=NSC2=NC(=O)/C(=C\c3coc4ccccc4c3=O)C(=N)N12 | 0.231 µM [rising, full curve, poor fit] | –
58 | Cc1nc2scc(-c3cccs3)c2c(=O)n1CC(=O)O | 20.6 µM [falling, partial curve] | –
59 | Cc1ccc(/C=C2\SC(=S)N(CCCC(=O)Nc3ccccn3)C2=O)cc1 | 0.447 µM [falling, full curve] | –

Some of the entries so far, with tabs.
Row	SMILES	AC50 [1]	AC50 [2]
49	CCOc1ccc(C(C)=O)cc1COC(=O)c1cc([N+](=O)[O-])ccc1N1CCOCC1	3.66 µM [rising, partial curve, poor fit]	–
50	CC(C)n1cc(CN2CCCC(CO)(Cc3cccc(Cl)c3)C2)cn1 (centres undefined)	3.55 µM [falling, partial curve, poor fit]	–
51	COc1ccc(-c2cn3ccccc3n2)cc1OC	14.1 µM [falling, single point]	–
52	CCN(CC(=O)Nc1c(F)cccc1F)C(=O)CCN1C(=O)C2CCCCC2C1=O (centres undefined)	32.6 µM [rising, partial curve, poor fit]	–
